# From paper PMC11750563
# Protein sequences, listed by entry. Tags and fused reporters are not part of them.
# UniProt Q08J23: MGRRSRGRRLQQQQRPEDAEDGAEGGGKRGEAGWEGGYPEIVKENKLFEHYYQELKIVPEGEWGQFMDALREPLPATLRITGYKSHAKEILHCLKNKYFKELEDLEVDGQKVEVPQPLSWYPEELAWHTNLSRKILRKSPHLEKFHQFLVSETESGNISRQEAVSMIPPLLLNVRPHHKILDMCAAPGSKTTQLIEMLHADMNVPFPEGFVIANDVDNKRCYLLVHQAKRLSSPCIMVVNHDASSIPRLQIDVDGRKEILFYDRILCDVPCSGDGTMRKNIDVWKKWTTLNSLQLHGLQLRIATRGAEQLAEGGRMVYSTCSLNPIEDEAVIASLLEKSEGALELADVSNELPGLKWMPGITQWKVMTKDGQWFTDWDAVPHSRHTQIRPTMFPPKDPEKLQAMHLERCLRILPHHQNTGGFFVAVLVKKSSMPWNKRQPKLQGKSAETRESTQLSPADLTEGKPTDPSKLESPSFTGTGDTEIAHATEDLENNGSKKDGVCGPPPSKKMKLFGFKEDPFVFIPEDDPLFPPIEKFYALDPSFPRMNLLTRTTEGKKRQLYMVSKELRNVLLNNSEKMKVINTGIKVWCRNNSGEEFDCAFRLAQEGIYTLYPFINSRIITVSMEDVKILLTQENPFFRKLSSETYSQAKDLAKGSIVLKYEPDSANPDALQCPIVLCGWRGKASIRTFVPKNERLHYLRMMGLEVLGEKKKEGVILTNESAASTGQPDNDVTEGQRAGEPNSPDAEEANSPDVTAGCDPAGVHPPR
# Results are given in words; binding and its absence hold for the method and conditions named. In cells and extracts the contact can be indirect. Here binding means that the protein was enriched with, or labelled near, the bait; the list need not be complete.
# B1: N-α-acetyltransferase 10 (NAA10), endogenous (enzyme, UniProt P41227 1-235)
# chain: MNIRNARPEDLMNMQHCNLLCLPENYQMKYYFYHGLSWPQLSYIAEDENGKIVGYVLAKMEEDPDDVPHGHITSLAVKRSHRRLGLAQKLMDQASRAMIENFNAKYVSLHVRKSNRAALHLYSNTLNFQISEVEPKYYADGEDAYAMKRDLTQMADELRRHLELKEKGRHVVLGAIENKVESKGNSPPSSGEACREEKGLAAEDSGGDSKDLSEVSETTESTDVKDSSEASDSAS
# Target: Flag-NSUN2 (NOP2/Sun domain family member 2) (UniProt Q08J23)
# Assay: affinity purification with mass spectrometry; Flag-NSUN2 from transfected HEK293 lysate held on Flag-M2 beads, 2 h at 4 °C; IP buffer 150 mM NaCl, 50 mM Tris-HCl pH 7.5, 1 % NP-40, 5 mM EDTA; silver staining and LC-MS/MS
binder,measurement,value
B1,binding,binds
